PubChem BioAssay AID1259405 | NCATS, 2018
Shown is an unselected part of about 50,000 reagents. About 4,000 of all reagents (8%) were called active. 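Mouse siRNA library applied to hamster cells; one well for each siRNA.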 Entries without a mark were called inactive.

Assay: 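Mouse-designed siRNAs used to find CHO productivity engineering targets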 (primary screen)
System: Chinese hamster CHO-K1 ovary cells with stable secreted eGFP expression
Knock-down reagent: single siRNA against mouse genes, 0.8 pmol siRNA per well (2 µl of 400 nM stock)
Timing: 3 days
Detection: 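Per-well intracellular GFP measured by laser scanning cytometry, plus viability from ATP luminescence, each relative to plate median of non-targeting control wells, in %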
Reading the numbers: GFP, % of control: higher = more GFP per well, higher productivity; viability (ATP), % of control: higher = more viable cells (more ATP)
Hit rule: 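Called active when intracellular GFP, relative to negative control, is at or above 120%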

gene	PubChem SID	GFP, % of control	viability (ATP), % of control
Kcnh3 (GeneID 16512)	SID363574839	107	81.9
Kcnh3 (GeneID 16512)	SID363575895	121 (active)	68.6
Kcnh3 (GeneID 16512)	SID363580471	85.4	88.8
Hmgb1 (GeneID 15289)	SID363540360	55.5	69.2
Hmgb1 (GeneID 15289)	SID363542112	114	84.2
Hmgb1 (GeneID 15289)	SID363567028	112	83.9
Akr1c18 (GeneID 105349)	SID363575150	129 (active)	82.3
Akr1c18 (GeneID 105349)	SID363580782	153 (active)	93.8
Akr1c18 (GeneID 105349)	SID363582894	88.7	74.2
Zfp112 (GeneID 57745)	SID363573850	84	106
Zfp112 (GeneID 57745)	SID363581594	72.5	79.3
Zfp112 (GeneID 57745)	SID363584058	58	83.3
Slc38a3 (GeneID 76257)	SID363581748	106	72.1
Slc38a3 (GeneID 76257)	SID363589242	27.3	34.8
Rbp3 (GeneID 19661)	SID363574829	107	97.7
Rbp3 (GeneID 19661)	SID363575885	52.4	90.2
Rbp3 (GeneID 19661)	SID363580461	101	94.4
Gpatch4 (GeneID 66614)	SID363569583	82.1	95.5
Gpatch4 (GeneID 66614)	SID363577327	80.4	86.5
Gpatch4 (GeneID 66614)	SID363578735	118	121
Gbf1 (GeneID 107338)	SID363545470	125 (active)	119
Gbf1 (GeneID 107338)	SID363548983	67.4	85.5
Gbf1 (GeneID 107338)	SID363562789	49.5	47.7
Pxn (GeneID 19303)	SID363541494	110	92
Pxn (GeneID 19303)	SID363556121	72.7	87.8
Pxn (GeneID 19303)	SID363566410	90.3	73.6
Lgi3 (GeneID 213469)	SID363544292	115	88.1
Lgi3 (GeneID 213469)	SID363550620	47.8	82.5
Lgi3 (GeneID 213469)	SID363557169	65.7	67
Map1b (GeneID 17755)	SID363572405	42.2	57.5
Map1b (GeneID 17755)	SID363574165	83.5	91.2
Trim6 (GeneID 94088)	SID363541658	73.3	75.9
Trim6 (GeneID 94088)	SID363553250	57.9	40.7
Trim6 (GeneID 94088)	SID363566574	56.1	52.2
Coxfa4 (GeneID 17992)	SID363572894	80.4	91.5
Coxfa4 (GeneID 17992)	SID363577470	78.5	67.4
Coxfa4 (GeneID 17992)	SID363580990	140 (active)	86.7
Nrarp (GeneID 67122)	SID363562340	87.2	49.8
Nrarp (GeneID 67122)	SID363567478	100	96.2
Nrarp (GeneID 67122)	SID363584835	83.1	55.6
Krabd5 (GeneID 102637366)	SID363540955	60.7	65
Krabd5 (GeneID 102637366)	SID363555582	62.6	70.2
Krabd5 (GeneID 102637366)	SID363565871	152 (active)	53.5
Olfr900 (GeneID 258874)	SID363554463	69	58.8
Olfr900 (GeneID 258874)	SID363567910	66.4	53.6
Olfr900 (GeneID 258874)	SID363585969	95.9	107
Sorcs2 (GeneID 81840)	SID363545055	85.6	116
Sorcs2 (GeneID 81840)	SID363551383	81.1	73.9
Sorcs2 (GeneID 81840)	SID363557932	49.4	69.2
Bkgd (GeneID 70984)	SID363542524	78.3	58.5
Bkgd (GeneID 70984)	SID363552015	62.5	39.1
Bkgd (GeneID 70984)	SID363559620	89	101
Or5t15 (GeneID 258725)	SID363544466	62.6	62.3
Or5t15 (GeneID 258725)	SID363550794	96.9	94.7
Or5t15 (GeneID 258725)	SID363557343	80.1	82.5
Krtap6-2 (GeneID 16701)	SID363540416	38.3	63
Krtap6-2 (GeneID 16701)	SID363542168	84.5	86.7
Krtap6-2 (GeneID 16701)	SID363567084	70.8	50.8
Pram1 (GeneID 378460)	SID363542305	74.5	59.8
Pram1 (GeneID 378460)	SID363551796	25.4	50.7
Pram1 (GeneID 378460)	SID363559401	76.7	91.6
Cep44 (GeneID 382010)	SID363547158	52.6	64
Cep44 (GeneID 382010)	SID363549970	59.8	98.4
Cep44 (GeneID 382010)	SID363588024	129 (active)	125
Or4c12 (GeneID 258338)	SID363554272	83.7	65.1
Or4c12 (GeneID 258338)	SID363567719	30.8	25.5
Or4c12 (GeneID 258338)	SID363585076	99.2	112
Or8b1d (GeneID 258781)	SID363554709	126 (active)	98.1
Or8b1d (GeneID 258781)	SID363568156	65.9	61.6
Or8b1d (GeneID 258781)	SID363586215	88.9	67
Armcx1 (GeneID 78248)	SID363546539	58.9	66.3
Armcx1 (GeneID 78248)	SID363548295	45.4	55.9
Armcx1 (GeneID 78248)	SID363560473	52.5	67.7
Zmiz1 (GeneID 328365)	SID363572738	35.4	34.4
Zmiz1 (GeneID 328365)	SID363578018	83.5	72
Zmiz1 (GeneID 328365)	SID363582242	101	143
Lrrc59 (GeneID 98238)	SID363542931	68.7	74.9
Lrrc59 (GeneID 98238)	SID363546448	59.2	63.5
Lrrc59 (GeneID 98238)	SID363548204	76.5	83.4
Synpr (GeneID 72003)	SID363582464	90.1	114
Synpr (GeneID 72003)	SID363584224	84.1	79.3
Ptcd3 (GeneID 69956)	SID363543845	80	81.9
Ptcd3 (GeneID 69956)	SID363551581	62.4	40.7
Ptcd3 (GeneID 69956)	SID363559186	82.8	78.1

Just “GFP, % of control”, for 10 of the entries above:
Sorcs2 (GeneID 81840) [SID363545055]: 85.6
Sorcs2 (GeneID 81840) [SID363551383]: 81.1
Sorcs2 (GeneID 81840) [SID363557932]: 49.4
Bkgd (GeneID 70984) [SID363542524]: 78.3
Bkgd (GeneID 70984) [SID363552015]: 62.5
Bkgd (GeneID 70984) [SID363559620]: 89
Or5t15 (GeneID 258725) [SID363544466]: 62.6
Or5t15 (GeneID 258725) [SID363550794]: 96.9
Or5t15 (GeneID 258725) [SID363557343]: 80.1
Krtap6-2 (GeneID 16701) [SID363540416]: 38.3
